Data published in the supplement of paper PMC4604168 (melanoma cell lines).
The list shows a part of the results. Single values are uncertain, as repeats are few or missing.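 The apoptosis fraction was the count of cleaved-PARP antibody-stained nuclei relative to all DNA-stained nuclei, imaged in 1,536-well plates. Screening doses were set so most cells survived, and baseline and induced cleaved-PARP levels vary greatly across cell lines.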

Columns and labels:
Experiment in all cases: cleaved PARP positive nuclei fraction relative to DMSO control; melanoma cells; higher = more apoptosis
Settings in all cases: library dose: low library concentration; 72 h
[1] = tested on: WM115
[2] = tested on: WM1716
[3] = tested on: WM1745
[4] = tested on: WM3526
[5] = tested on: WM3619
[6] = tested on: WM451Lu

SMILES | cleaved PARP positive nuclei fraction [1] [%] | cleaved PARP positive nuclei fraction [2] [%] | cleaved PARP positive nuclei fraction [3] [%] | cleaved PARP positive nuclei fraction [4] [%] | cleaved PARP positive nuclei fraction [5] [%] | cleaved PARP positive nuclei fraction [6] [%]
CS(=O)(=O)c1ccc(C(=O)Nc2ccc(Cl)c(-c3ccccn3)c2)c(Cl)c1 [vismodegib] + NC(=O)Nc1cc(-c2cccc(F)c2)sc1C(=O)N[C@H]1CCCNC1 [AZD7762] (first compound 1 µM, partner dose 0.02 µM) | 209 | 104 | 88.2 | 67.8 | 159 | 60
CC(=O)O[C@@]12CO[C@@H]1C[C@H](O)[C@@]1(C)C(=O)[C@H](O)C3=C(C)[C@@H](OC(=O)[C@H](O)[C@@H](NC(=O)OC(C)(C)C)c4ccccc4)C[C@@](O)([C@@H](OC(=O)c4ccccc4)[C@H]21)C3(C)C [Docetaxel] + NC1(c2ccc(-c3nc4ccn5c(=O)[nH]nc5c4cc3-c3ccccc3)cc2)CCC1 [MK2206] (first compound 0.0001 µM, partner dose 0.4 µM) | 555 | 99.9 | 176 | 218 | 153 | 141
C[C@]1(O)C[C@@H](c2nc(-c3ccc4ccc(-c5ccccc5)nc4c3)c3c(N)nccn32)C1 + CCCCCCCCc1ccc(CCC(N)(CO)CO)cc1 [fingolimod] (first compound 0.4 µM, partner dose 2 µM) | 133 | 93.6 | 144 | 218 | 79.8 | 44.9
NC1(c2ccc(-c3nc4ccn5c(=O)[nH]nc5c4cc3-c3ccccc3)cc2)CCC1 + Nc1nc(F)nc2c1ncn2[C@@H]1O[C@H](CO)[C@@H](O)[C@@H]1O [fludarabine] (first compound 0.4 µM, partner dose 0.2 µM) | 367 | 36.1 | 88.2 | 853 | 85.1 | 199
CC(=O)O[C@@]12CO[C@@H]1C[C@H](O)[C@@]1(C)C(=O)[C@H](O)C3=C(C)[C@@H](OC(=O)[C@H](O)[C@@H](NC(=O)OC(C)(C)C)c4ccccc4)C[C@@](O)([C@@H](OC(=O)c4ccccc4)[C@H]21)C3(C)C [Docetaxel] + COc1cc(N2CCC(N3CCN(C)CC3)CC2)ccc1Nc1ncc(Cl)c(Nc2ccccc2S(=O)(=O)C(C)C)n1 [NVP-TAE684] (first compound 0.0001 µM, partner dose 0.08 µM) | 579 | 363 | 167 | 196 | 211 | 212
CCCCCCCCc1ccc(CCC(N)(CO)CO)cc1 [fingolimod] + c1cc(-c2cnn3cc(-c4ccc(OCCN5CCCCC5)cc4)cnc23)ccn1 [Dorsomorphin] (first compound 2 µM, partner dose 0.4 µM) | 206 | 49.6 | 102 | 76.1 | 97.1 | 37
CCN(CC)CCNC(=O)c1c(C)[nH]c(/C=C2\C(=O)Nc3ccc(F)cc32)c1C [sunitinib] + CNC(=O)c1cc(Oc2ccc(NC(=O)Nc3ccc(Cl)c(C(F)(F)F)c3)cc2)ccn1 [sorafenib] (first compound 0.4 µM, partner dose 0.4 µM) | 121 | 94.5 | 131 | 102 | 73.5 | 26.8
NC1(c2ccc(-c3nc4ccn5c(=O)[nH]nc5c4cc3-c3ccccc3)cc2)CCC1 + Cc1cc([N+](=O)[O-])ccc1NS(=O)(=O)c1cc(Cl)ccc1Cl [FH535] (first compound 0.4 µM, partner dose 1 µM) | 102 | 94.3 | 90.7 | 89.5 | 96 | 34.7
CC(=O)O[C@@]12CO[C@@H]1C[C@H](O)[C@@]1(C)C(=O)[C@H](O)C3=C(C)[C@@H](OC(=O)[C@H](O)[C@@H](NC(=O)OC(C)(C)C)c4ccccc4)C[C@@](O)([C@@H](OC(=O)c4ccccc4)[C@H]21)C3(C)C [Docetaxel] + CNC(=O)c1cc(Oc2ccc(NC(=O)Nc3ccc(Cl)c(C(F)(F)F)c3)cc2)ccn1 [sorafenib] (first compound 0.0001 µM, partner dose 0.4 µM) | 460 | 631 | 178 | 211 | 182 | 69.4
CS(=O)(=O)c1ccc(C(=O)Nc2ccc(Cl)c(-c3ccccn3)c2)c(Cl)c1 [vismodegib] + Nc1cccc2c1CN(C1CCC(=O)NC1=O)C2=O [lenalidomide] (first compound 1 µM, partner dose 1 µM) | 99.2 | 67.9 | 102 | 166 | 86.8 | 57.1
NC(=O)c1ccc(N(C(N)=O)c2c(F)cccc2F)nc1-c1ccc(F)cc1F + CC(C)C[C@H](NC(=O)[C@H](Cc1ccccc1)NC(=O)c1cnccn1)B(O)O [Bortezomib] (first compound 0.4 µM, partner dose 0.001 µM) | 265 | 63.5 | 96.9 | 52 | 249 | 44.1
CC(=O)O[C@@]12CO[C@@H]1C[C@H](O)[C@@]1(C)C(=O)[C@H](O)C3=C(C)[C@@H](OC(=O)[C@H](O)[C@@H](NC(=O)OC(C)(C)C)c4ccccc4)C[C@@](O)([C@@H](OC(=O)c4ccccc4)[C@H]21)C3(C)C [Docetaxel] + O=C(Nc1ccccc1)c1cc([N+](=O)[O-])ccc1Cl [GW9662] (first compound 0.0001 µM, partner dose 2 µM) | 281 | 608 | 158 | 160 | 173 | 137
Cn1sc(=O)n(Cc2ccccc2)c1=O + Cc1cc(N2CCOCC2)cc2[nH]c(-c3c(NC[C@@H](O)c4cccc(Cl)c4)cc[nH]c3=O)nc12 [BMS536924] (first compound 0.4 µM, partner dose 0.2 µM) | 106 | 168 | 116 | 60.9 | 100 | 163
Cn1cnc2c(F)c(Nc3ccc(Br)cc3Cl)c(C(=O)NOCCO)cc21 [selumetinib] + C=C(c1ccc(C(=O)O)cc1)c1cc2c(cc1C)C(C)(C)CCC2(C)C [Bexarotene] (first compound 0.015 µM, partner dose 2 µM) | 144 | 69.9 | 108 | 535 | 121 | 110
CCCCCCCCc1ccc(CCC(N)(CO)CO)cc1 [fingolimod] + O=C(O)c1ccc2c(c1)nc(Nc1cccc(Cl)c1)c1ccncc12 [CX4945] (first compound 2 µM, partner dose 0.4 µM) | 135 | 52.9 | 114 | 86.4 | 115 | 50.8
NC(=O)c1ccc(N(C(N)=O)c2c(F)cccc2F)nc1-c1ccc(F)cc1F + CN1CCN(c2ccc3nc(-c4c(N)c5c(F)cccc5[nH]c4=O)[nH]c3c2)CC1 [Dovitinib] (first compound 0.4 µM, partner dose 0.1 µM) | 125 | 554 | 206 | 54.9 | 81.7 | 82.9
CC1(C)CCC(c2ccc(Cl)cc2)=C(CN2CCN(c3ccc(C(=O)NS(=O)(=O)c4ccc(N[C@H](CCN5CCOCC5)CSc5ccccc5)c(S(=O)(=O)C(F)(F)F)c4)cc3)CC2)C1 + CN1CCN(c2ccc3nc(-c4c(N)c5c(F)cccc5[nH]c4=O)[nH]c3c2)CC1 [Dovitinib] (first compound 0.4 µM, partner dose 0.1 µM) | 223 | 343 | 1040 | 100 | 102 | 133
COc1ccc(C2=N[C@@H](c3ccc(Cl)cc3)[C@@H](c3ccc(Cl)cc3)N2C(=O)N2CCNC(=O)C2)c(OC(C)C)c1 [Nutlin-3] + COc1cc2ncnc(Nc3ccc(Oc4ccccc4)cc3)c2cc1OC [SrcI1] (first compound 0.1 µM, partner dose 2 µM) | 124 | 92.4 | 98 | 161 | 99.3 | 37.3
Cn1cnc2c(F)c(Nc3ccc(Br)cc3Cl)c(C(=O)NOCCO)cc21 [selumetinib] + CC(=O)c1c(C)c2cnc(Nc3ccc(N4CCNCC4)cn3)nc2n(C2CCCC2)c1=O [palbociclib] (first compound 0.015 µM, partner dose 0.04 µM) | 91.5 | 383 | 129 | 179 | 105 | 56.8
Cn1cnc2c(F)c(Nc3ccc(Br)cc3Cl)c(C(=O)NOCCO)cc21 [selumetinib] + Cn1sc(=O)n(Cc2ccccc2)c1=O [TDZD-8] (first compound 0.015 µM, partner dose 0.4 µM) | 100 | 13.7 | 94 | 36.1 | 122 | 54.1
CC1(C)CCC(c2ccc(Cl)cc2)=C(CN2CCN(c3ccc(C(=O)NS(=O)(=O)c4ccc(N[C@H](CCN5CCOCC5)CSc5ccccc5)c(S(=O)(=O)C(F)(F)F)c4)cc3)CC2)C1 + O=C(O)C(=O)Nc1sc2c(c1C(=O)O)CCNC2 [TCS401] (first compound 0.4 µM, partner dose 1.66667 µM) | 234 | 41 | 1170 | 170 | 107 | 124

Quoted at random: 2 entries already listed
SMILES | cleaved PARP positive nuclei fraction [1] [%] | cleaved PARP positive nuclei fraction [2] [%] | cleaved PARP positive nuclei fraction [3] [%] | cleaved PARP positive nuclei fraction [4] [%] | cleaved PARP positive nuclei fraction [5] [%] | cleaved PARP positive nuclei fraction [6] [%]
CS(=O)(=O)c1ccc(C(=O)Nc2ccc(Cl)c(-c3ccccn3)c2)c(Cl)c1 [vismodegib] + NC(=O)Nc1cc(-c2cccc(F)c2)sc1C(=O)N[C@H]1CCCNC1 [AZD7762] (first compound 1 µM, partner dose 0.02 µM) | 209 | 104 | 88.2 | 67.8 | 159 | 60
NC(=O)c1ccc(N(C(N)=O)c2c(F)cccc2F)nc1-c1ccc(F)cc1F + CC(C)C[C@H](NC(=O)[C@H](Cc1ccccc1)NC(=O)c1cnccn1)B(O)O [Bortezomib] (first compound 0.4 µM, partner dose 0.001 µM) | 265 | 63.5 | 96.9 | 52 | 249 | 44.1
